Source: patent US20230287363, “DNA POLYMERASE, APTAMER, WARM-START DNA POLYMERASE AND PREPARATION METHODS AND APPLICATION THEREOF” (Sun Yat-Sen University, published 2023)

By UniProt entry, the sequences of proteins in these tests, tags left out. Chains listed by the source or under a name are the forms on record and can include a tag or linker.
UniProt P19821, other isoform, or with tags, fused parts or gaps: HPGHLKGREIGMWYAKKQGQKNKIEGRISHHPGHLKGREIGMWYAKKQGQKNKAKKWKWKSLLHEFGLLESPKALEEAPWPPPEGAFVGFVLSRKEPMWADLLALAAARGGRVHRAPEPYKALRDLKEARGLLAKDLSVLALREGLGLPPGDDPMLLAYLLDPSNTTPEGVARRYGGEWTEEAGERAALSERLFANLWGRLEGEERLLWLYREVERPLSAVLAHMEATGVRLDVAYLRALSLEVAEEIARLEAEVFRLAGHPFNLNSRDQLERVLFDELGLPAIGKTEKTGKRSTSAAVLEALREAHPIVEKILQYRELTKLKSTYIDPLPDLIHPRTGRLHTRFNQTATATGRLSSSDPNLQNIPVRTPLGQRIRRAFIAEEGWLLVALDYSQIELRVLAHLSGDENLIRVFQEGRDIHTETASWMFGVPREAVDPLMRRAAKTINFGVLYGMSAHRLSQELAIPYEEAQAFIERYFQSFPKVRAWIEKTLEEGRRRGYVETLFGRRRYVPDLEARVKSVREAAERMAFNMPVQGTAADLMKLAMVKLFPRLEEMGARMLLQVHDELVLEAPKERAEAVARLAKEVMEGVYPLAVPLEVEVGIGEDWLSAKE

Biological target: RHAU23-Taq (Homo sapiens / Thermus aquaticus) (UniProt P19821)
Assay: inhibition of the protein
Conditions: almost completely inhibited below 35 C by 200 nM aptamer; almost full recovery above 50 C; 2 mM MgSO4; purified recombinant protein; protein details: His-tag, pCold-I; folded or branched DNA; variant of HG53 (HG53-H8/T10)

Sequence: AGACCAGAAGTTTTGGTGGGTGGGTGGGATTTTTTTTTTACTGGTCT [HG53-H7]
- functional effect of the aptamer: active
